Experimental data from PubChem BioAssay (EPA / NIEHS).
For some of these results: This list holds what a sample rich in hits left over. Records with an inconclusive call do not appear. The entries are a selection whose mix differs from that of the whole data set. Some structures have more than one record in an assay (separate samples or runs), and their calls can disagree. Activity calls are given as the source filed them. The calls were made as follows, unless noted: active = hit-call score of the fitted dose curve at least 0.9, where 1 is the maximum; inactive = score below 0.9.

Sequences of proteins named here, by UniProt entry; tags and fusion partners are left off. A change or cut given only in a name is not applied to a line headed by its entry.
UniProt P21709: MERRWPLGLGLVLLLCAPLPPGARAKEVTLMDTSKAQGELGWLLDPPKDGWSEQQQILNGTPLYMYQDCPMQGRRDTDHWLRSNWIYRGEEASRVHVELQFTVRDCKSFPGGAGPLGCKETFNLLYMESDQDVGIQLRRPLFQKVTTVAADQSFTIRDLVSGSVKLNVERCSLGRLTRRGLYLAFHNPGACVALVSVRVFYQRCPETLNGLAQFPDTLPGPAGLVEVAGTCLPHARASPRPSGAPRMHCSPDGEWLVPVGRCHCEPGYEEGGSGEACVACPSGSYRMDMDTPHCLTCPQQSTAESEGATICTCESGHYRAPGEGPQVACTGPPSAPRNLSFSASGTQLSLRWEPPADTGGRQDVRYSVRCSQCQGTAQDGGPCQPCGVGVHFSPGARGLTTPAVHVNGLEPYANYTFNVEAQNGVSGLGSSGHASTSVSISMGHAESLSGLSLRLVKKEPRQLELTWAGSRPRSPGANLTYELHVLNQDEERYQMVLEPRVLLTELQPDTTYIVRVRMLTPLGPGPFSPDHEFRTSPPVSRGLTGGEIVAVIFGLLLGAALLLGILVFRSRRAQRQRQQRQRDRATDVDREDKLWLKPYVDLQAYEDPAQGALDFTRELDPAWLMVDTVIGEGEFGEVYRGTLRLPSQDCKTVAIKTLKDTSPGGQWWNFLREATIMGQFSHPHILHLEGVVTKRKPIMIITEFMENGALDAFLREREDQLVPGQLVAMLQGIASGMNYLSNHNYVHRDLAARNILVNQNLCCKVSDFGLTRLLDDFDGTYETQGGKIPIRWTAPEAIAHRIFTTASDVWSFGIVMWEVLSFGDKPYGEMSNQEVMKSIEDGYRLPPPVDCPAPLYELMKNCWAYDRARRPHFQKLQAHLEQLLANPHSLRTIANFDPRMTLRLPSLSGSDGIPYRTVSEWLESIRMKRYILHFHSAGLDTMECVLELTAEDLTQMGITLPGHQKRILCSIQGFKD
UniProt Q12923: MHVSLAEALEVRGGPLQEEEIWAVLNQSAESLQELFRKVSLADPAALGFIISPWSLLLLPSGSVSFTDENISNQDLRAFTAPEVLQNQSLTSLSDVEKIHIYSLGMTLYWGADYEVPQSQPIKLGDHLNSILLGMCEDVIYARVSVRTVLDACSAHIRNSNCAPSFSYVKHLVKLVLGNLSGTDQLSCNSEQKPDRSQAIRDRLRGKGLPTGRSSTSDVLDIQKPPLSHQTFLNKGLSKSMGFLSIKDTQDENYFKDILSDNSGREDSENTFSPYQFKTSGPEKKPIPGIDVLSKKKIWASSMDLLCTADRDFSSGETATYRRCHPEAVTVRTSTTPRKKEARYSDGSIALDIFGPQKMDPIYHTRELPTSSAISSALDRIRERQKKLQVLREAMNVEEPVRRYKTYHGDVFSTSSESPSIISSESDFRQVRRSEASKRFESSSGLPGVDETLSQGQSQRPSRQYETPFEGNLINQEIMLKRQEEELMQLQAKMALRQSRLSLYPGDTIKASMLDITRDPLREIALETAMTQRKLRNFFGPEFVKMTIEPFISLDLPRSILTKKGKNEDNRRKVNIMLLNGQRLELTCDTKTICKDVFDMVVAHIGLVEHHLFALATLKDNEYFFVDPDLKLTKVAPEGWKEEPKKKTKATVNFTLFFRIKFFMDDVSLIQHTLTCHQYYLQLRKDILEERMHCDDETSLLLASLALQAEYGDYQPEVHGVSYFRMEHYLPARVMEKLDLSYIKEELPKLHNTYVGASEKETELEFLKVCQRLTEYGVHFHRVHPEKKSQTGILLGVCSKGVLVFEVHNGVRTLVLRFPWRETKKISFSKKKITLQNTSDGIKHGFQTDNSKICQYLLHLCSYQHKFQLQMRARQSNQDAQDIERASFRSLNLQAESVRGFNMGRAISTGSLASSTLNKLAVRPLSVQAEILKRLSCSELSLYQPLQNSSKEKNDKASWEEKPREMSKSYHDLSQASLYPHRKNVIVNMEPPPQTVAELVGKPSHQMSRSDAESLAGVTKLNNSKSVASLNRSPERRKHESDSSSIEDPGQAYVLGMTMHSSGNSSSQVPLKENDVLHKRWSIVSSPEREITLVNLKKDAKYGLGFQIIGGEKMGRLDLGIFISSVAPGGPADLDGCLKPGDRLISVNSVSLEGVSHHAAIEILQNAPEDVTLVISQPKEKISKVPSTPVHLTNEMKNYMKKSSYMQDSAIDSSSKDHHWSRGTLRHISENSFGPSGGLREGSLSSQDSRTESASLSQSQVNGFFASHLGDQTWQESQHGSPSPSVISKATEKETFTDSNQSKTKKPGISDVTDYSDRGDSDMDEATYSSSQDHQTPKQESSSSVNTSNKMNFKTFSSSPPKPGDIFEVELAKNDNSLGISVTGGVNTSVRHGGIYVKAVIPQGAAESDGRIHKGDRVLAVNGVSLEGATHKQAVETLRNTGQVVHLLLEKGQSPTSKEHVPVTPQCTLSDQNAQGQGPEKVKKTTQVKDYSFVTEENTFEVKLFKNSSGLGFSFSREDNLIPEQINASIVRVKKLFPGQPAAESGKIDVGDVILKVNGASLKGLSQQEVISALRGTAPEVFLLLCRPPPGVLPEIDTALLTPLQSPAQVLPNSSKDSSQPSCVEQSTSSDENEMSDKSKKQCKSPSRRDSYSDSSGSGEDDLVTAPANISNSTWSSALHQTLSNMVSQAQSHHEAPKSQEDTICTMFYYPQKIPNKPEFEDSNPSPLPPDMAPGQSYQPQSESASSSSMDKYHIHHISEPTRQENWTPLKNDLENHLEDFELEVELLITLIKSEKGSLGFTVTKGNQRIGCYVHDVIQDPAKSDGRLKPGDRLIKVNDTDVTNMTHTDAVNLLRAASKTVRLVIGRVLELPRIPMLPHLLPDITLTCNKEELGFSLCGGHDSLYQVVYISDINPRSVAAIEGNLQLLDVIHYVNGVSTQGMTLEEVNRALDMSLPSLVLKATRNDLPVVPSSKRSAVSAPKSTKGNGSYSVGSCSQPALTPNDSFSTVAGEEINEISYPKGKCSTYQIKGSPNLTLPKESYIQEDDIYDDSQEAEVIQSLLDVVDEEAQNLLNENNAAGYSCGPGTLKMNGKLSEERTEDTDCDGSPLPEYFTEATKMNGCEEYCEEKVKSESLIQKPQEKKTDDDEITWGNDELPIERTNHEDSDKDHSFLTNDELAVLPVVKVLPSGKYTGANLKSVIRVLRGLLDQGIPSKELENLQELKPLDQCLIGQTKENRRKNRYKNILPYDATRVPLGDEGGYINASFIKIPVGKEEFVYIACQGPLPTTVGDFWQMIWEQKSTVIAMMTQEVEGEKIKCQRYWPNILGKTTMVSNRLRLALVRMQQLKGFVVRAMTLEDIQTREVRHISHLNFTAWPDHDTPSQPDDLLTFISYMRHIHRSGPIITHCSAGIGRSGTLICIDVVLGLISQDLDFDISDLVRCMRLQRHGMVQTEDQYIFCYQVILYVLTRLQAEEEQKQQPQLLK
UniProt Q5TCH4: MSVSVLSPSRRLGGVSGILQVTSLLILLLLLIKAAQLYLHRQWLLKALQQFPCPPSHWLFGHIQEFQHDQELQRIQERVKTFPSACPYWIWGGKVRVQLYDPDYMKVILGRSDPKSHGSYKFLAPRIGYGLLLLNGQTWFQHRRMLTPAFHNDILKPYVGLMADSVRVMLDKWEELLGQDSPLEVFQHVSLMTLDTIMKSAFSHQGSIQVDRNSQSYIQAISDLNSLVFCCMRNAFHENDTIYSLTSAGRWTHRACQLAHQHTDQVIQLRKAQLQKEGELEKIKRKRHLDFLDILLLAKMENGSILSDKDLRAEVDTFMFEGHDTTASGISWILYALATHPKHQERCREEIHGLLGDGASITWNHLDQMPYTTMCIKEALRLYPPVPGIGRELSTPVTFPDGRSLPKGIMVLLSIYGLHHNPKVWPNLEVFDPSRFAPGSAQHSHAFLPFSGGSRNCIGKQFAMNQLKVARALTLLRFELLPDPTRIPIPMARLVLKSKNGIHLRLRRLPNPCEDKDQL
UniProt P19838: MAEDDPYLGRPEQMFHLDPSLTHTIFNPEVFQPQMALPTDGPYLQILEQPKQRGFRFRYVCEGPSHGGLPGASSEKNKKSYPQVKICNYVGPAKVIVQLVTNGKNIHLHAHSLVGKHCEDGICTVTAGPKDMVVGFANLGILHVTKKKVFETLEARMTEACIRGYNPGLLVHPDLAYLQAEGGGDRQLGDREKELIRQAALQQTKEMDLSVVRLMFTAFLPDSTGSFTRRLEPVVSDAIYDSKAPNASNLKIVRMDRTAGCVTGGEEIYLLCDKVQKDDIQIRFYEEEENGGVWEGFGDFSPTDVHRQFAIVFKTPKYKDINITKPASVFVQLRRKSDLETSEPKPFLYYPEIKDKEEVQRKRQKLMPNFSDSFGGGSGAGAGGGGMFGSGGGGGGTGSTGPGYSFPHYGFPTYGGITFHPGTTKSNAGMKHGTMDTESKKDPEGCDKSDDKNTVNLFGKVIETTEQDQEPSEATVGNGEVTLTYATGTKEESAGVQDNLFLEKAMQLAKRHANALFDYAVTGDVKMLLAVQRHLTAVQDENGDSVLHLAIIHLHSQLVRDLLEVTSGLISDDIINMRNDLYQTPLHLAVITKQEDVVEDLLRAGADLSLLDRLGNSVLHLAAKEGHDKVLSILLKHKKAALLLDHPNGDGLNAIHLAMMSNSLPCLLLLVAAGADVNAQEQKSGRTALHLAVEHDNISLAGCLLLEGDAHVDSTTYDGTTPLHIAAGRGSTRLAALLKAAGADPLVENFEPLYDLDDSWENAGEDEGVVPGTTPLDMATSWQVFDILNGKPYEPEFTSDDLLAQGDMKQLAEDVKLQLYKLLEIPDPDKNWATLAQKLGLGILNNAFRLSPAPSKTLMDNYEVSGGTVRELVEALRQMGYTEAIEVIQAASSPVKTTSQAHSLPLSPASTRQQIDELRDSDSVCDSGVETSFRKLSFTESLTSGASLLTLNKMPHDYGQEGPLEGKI
UniProt P10275: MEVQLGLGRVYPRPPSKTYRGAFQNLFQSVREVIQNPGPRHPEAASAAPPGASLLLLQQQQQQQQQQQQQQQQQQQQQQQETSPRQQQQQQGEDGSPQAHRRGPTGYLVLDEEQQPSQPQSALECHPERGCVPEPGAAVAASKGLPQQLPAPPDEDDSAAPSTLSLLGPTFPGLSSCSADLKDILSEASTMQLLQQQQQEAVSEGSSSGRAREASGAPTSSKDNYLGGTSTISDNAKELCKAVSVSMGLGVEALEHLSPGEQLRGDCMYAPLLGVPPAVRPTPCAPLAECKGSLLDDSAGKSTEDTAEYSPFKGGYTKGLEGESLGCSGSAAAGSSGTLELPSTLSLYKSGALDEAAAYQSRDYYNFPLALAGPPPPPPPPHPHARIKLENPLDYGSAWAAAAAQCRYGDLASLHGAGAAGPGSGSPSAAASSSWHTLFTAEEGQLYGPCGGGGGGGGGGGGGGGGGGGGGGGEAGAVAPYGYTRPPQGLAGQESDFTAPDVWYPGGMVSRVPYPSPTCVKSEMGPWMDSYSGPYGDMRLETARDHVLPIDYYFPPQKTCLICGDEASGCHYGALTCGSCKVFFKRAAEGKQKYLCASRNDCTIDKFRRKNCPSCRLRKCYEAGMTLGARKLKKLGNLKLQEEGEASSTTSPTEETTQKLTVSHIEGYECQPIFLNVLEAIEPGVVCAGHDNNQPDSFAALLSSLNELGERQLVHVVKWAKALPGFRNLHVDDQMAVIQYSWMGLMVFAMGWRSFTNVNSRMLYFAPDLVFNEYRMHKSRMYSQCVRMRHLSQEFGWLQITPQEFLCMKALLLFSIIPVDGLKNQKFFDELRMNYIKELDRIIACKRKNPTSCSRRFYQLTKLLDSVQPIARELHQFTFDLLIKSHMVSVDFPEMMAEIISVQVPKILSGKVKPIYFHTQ
UniProt Q16236, whole entry, looked up: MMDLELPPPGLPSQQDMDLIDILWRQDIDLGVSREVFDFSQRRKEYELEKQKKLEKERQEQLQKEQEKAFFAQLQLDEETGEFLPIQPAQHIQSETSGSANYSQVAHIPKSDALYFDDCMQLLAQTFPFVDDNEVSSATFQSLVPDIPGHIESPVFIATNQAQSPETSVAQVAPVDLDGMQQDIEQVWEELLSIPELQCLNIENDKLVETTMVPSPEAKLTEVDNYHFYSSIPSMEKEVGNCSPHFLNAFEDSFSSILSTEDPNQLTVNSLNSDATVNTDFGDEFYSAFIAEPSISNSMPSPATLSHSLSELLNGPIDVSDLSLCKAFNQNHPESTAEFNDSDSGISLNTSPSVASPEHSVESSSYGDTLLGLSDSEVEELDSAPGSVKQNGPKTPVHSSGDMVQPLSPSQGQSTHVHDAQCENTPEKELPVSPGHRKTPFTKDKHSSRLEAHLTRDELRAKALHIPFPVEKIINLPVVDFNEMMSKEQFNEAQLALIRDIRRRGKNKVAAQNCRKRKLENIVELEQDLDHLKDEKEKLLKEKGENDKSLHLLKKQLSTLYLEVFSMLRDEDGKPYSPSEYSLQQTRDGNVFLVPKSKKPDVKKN

What was measured:
[1] = read-out: Tissue Factor, F3 (gene 2152); test: BSK_CASM3C_TissueFactor: BioMAP Diversity Plus: CASM3C Assay for Tissue Factor Biomarker Activity (AID 2283052); conditions: actives raise or lower the signal; primary human coronary artery smooth muscle cells;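 also: cell surface tissue factor protein level read by ELISA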
[2] = target: human Ephrin type-A Receptor 1 (EphA1), EPHA1 (gene 2041) (UniProt P21709); test: NVS_ENZ_hEphA1: NovaScreen (NVS) Enzymatic Assay for human Ephrin type-A Receptor 1 (EphA1) (AID 2283158; active = hit-call score of the fitted dose curve at least 0.9, where 1 is the maximum;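 also: activity is signal loss versus DMSO meaning EphA1 kinase inhibition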)
Outline: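 Biochemical kinase assay run cell-free; 1 h incubation; readout is fluorescence with mobility-shift separation of product. Concentration-response up to 50 uM for actives from a 25 uM screen.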

[3] = target: Tyrosine-protein phosphatase non-receptor type 13 (Homo sapiens) (UniProt Q12923); test: NVS_ENZ_hPTPN13: NovaScreen (NVS) Enzymatic Assay for human Protein Tyrosine Phosphatase Non-receptor Type 13 (PTPN13) (AID 2283205; active = hit-call score of the fitted dose curve at least 0.9, where 1 is the maximum)
Outline: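 Screened first at a single 25 uM in duplicate; compounds passing the threshold (e.g. 30% inhibition) were rerun in concentration series, top 50 uM. Recombinant enzyme, fluorescent substrate, mobility-shift separation, 0.5 h read. Data fitted as inhibition relative to DMSO.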

[4] = read-out: Alkaline Phosphatase, Placental (ALPP) gene, ALPP (gene 250); test: LTEA_HepaRG_ALPP: Life Technologies and Expression Analysis (LTEA) Assay for Alkaline Phosphatase, Placental (ALPP) gene using HepaRG (AID 2283468); conditions: actives raise or lower the signal; mRNA level, 48 h;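 also: differentiated human HepaRG liver cells in serum-free induction medium; ALPP transcript by TaqMan qRT-PCR normalized to ACTB GAPDH and POLR2A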
Outline: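 Expression of ALPP was quantified by qRT-PCR against three housekeeping genes in human HepaRG cultures treated for 48 h with an eight-point concentration series up to 100 uM. Activity in either direction was fitted relative to 0.5% DMSO.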

[5] = read-out: Cytochrome P450 4A22 (Homo sapiens) (UniProt Q5TCH4); test: LTEA_HepaRG_CYP4A22: Life Technologies and Expression Analysis (LTEA) Assay for Cytochrome P450 4A22 (CYP4A22) using HepaRG (AID 2283495); conditions: actives raise or lower the signal; mRNA level, 48 h
Outline: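 Cryopreserved HepaRG cells, plated and cultured 48 h, then switched to serum-free induction medium and treated 48 h (duplicates, up to 100 uM, half-log steps, 0.5% DMSO). Expression change of CYP4A22 was fitted bidirectionally against vehicle.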

[6] = read-out: Nuclear factor NF-kappa-B p105 subunit (Homo sapiens) (UniProt P19838); test: LTEA_HepaRG_NFKB1: Life Technologies and Expression Analysis (LTEA) Assay for Nuclear Factor Kappa B Subunit 1 (NFKB1) using HepaRG (AID 2283521); conditions: actives raise or lower the signal; mRNA level, 48 h;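 also: differentiated human HepaRG liver cells in serum-free induction medium; TaqMan qRT-PCR transcript normalised to ACTB GAPDH and POLR2A housekeeping genes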
Outline: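 HepaRG, 48 h exposure; 8-pt half-log series from 100 uM in 0.5% DMSO; duplicates. Readout: NFKB1 mRNA by qRT-PCR (Fluidigm arrays), housekeeping-normalized. Gain/loss fit vs DMSO baseline.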

[7] = read-out: ABC Transporter (ABCB1), ABCB1 (gene 5243); test: CLD_ABCB1_6hr: CellzDirect (CLD) Gene Expression Assay for ABC Transporter (ABCB1) at 6 hours (AID 2283659; active = hit-call score of the fitted dose curve at least 0.9, where 1 is the maximum;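 also: hits raise ABCB1 transcript above the DMSO vehicle baseline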)
Outline: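 ABCB1 transcript measured by quantitative nuclease protection assay, chemiluminescent read-out, 6 h after dosing human hepatocyte cultures (0.2% DMSO vehicle, daily redosing). Activity fitted as increase over DMSO baseline; cytotoxicity flagged by phase-contrast morphology.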

[8] = ACEA_AR_agonist_AUC_viability: ACEA Biosciences xCELLigence Real-Time Cell Analysis on Androgen Receptor Agonism for Viability (AID 2283775; active = hit-call score of the fitted dose curve at least 0.9, where 1 is the maximum;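 also: viability read 80 hours after compound addition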)
Outline: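 22Rv1 cells; impedance growth kinetics; 8-pt 1:4 dilutions from 100 uM top final, ≤0.5% DMSO; n = 2; 80 h read; AUC viability, loss-of-signal vs DMSO.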

[9] = BSK_hDFCGF_SRB: Viability Assessment in the BioMAP Diversity Plus: hDFCGF Assay (AID 2283061); conditions: primary human foreskin fibroblasts;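 also: cells exposed to compound for 24 h before the read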
Outline: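 Cells were dosed with test chemical, cultured 24 h, fixed with 10% TCA, then stained with 0.1% SRB and read at 560 nm. The fibroblasts were human foreskin primary cells, and DMSO served as baseline.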

[10] = read-out: serum amyloid A (SAA), SAA1 (gene 6288); test: BSK_CASM3C_SAA: BioMAP Diversity Plus: CASM3C Assay for serum amyloid A (SAA) Biomarker Activity (AID 2283049); conditions: actives raise or lower the signal; primary human coronary artery smooth muscle cells;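 also: SAA protein level quantified by ELISA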
[11] = CEETOX_H295R_PROG: CeeTox H295R High-throughput Steroidogenesis Assay for Progesterone (PROG) (AID 2283442); conditions: actives raise or lower the signal
Outline: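 Adrenal H295R line, forskolin-stimulated (10 uM, 48 h) before dosing. 48 h exposure, 0.1% DMSO vehicle. Secreted progesterone by reverse-phase HPLC with ESI+ MS/MS quantification; DMSO-normalised bidirectional curve fit.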

[12] = target: Nucleoli Translocation, AR (gene 367) (UniProt P10275); test: UPITT_HCI_U2OS_AR_TIF2_Nucleoli_Agonist: University of Pittsburgh U2OS Androgen Receptor-Transcriptional Intermediary Factor 2 (AR-TIF2) Agonism High Content Imaging Assay for Nucleoli Translocation (AID 2283998; active = hit-call score of the fitted dose curve at least 0.9, where 1 is the maximum)
Outline: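 Red-tagged human androgen receptor co-expressed with GFP-tagged TIF2 serves as the binding reporter. Primary testing used 20 uM final (0.2% DMSO); follow-up dose response covered 0.195 to 50 uM final (0.5% DMSO).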

[13] = read-out: Macrophage colony-stimulating factor (MCSF), CSF1 (gene 1435); test: BSK_hDFCGF_MCSF: BioMAP Diversity Plus: hDFCGF Assay for Macrophage colony-stimulating factor (MCSF) Biomarker Activity (AID 2283060); conditions: actives raise or lower the signal; primary human foreskin fibroblasts
Outline: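 M-CSF levels, determined by ELISA, are taken at 24 h after dosing human skin fibroblasts. Responses in either direction are fitted with DMSO serving as the baseline.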

[14] = CEETOX_H295R_11DCORT: CeeTox H295R High-throughput Steroidogenesis Assay for 11-Deoxycortisol (11DCORT) (AID 2283432); conditions: actives raise or lower the signal
Outline: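 Adrenal carcinoma line H295R, run per OECD 456 with minor changes, was forskolin-stimulated (10 uM, 48 h) before a 48 h chemical exposure at 0.1% DMSO. Secreted 11-deoxycortisol was quantified by HPLC-MS/MS.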

[15] = CEETOX_H295R_CORTISOL: CeeTox H295R High-throughput Steroidogenesis Assay for Cortisol (AID 2283438); conditions: actives raise or lower the signal;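 also: cortisol secreted into medium quantified by LC-MS/MS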
Outline: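 Cortisol measured by HPLC-MS/MS after MTBE extraction of medium from H295R cells exposed 48 h to chemical (0.1% DMSO), following 48 h prestimulation with 10 uM forskolin. Viability assessed by MTT in the same wells.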

[16] = CEETOX_H295R_DOC: CeeTox H295R High-throughput Steroidogenesis Assay for DOC (AID 2283439); conditions: actives raise or lower the signal
Outline: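 11-Deoxycorticosterone quantified in medium by MTBE extraction and HPLC-MS/MS after 48 h chemical exposure (0.1% DMSO) of forskolin-primed (10 uM, 48 h) H295R cells. Same-well MTT viability; data fitted bidirectionally against DMSO.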

[17] = read-out: TIMP metallopeptidase inhibitor 1 (TIMP1), TIMP1 (gene 7076); test: BSK_hDFCGF_TIMP1: BioMAP Diversity Plus: hDFCGF Assay for TIMP metallopeptidase inhibitor 1 (TIMP1) Biomarker Activity (AID 2283062); conditions: actives raise or lower the signal; primary human foreskin fibroblasts
Outline: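 Fibroblasts from human foreskin are treated with test chemical and harvested at 24 h. TIMP-1 is quantified by ELISA, and gain or loss of signal is scored against DMSO.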

[18] = read-out: Interleukin-1 alpha (IL1a), IL1A (gene 3552); test: BSK_KF3CT_IL1a: BioMAP Diversity Plus: KF3CT Assay for Interleukin-1 alpha (IL1a) Biomarker Activity (AID 2283070); conditions: actives raise or lower the signal; primary human keratinocytes with fibroblasts
Outline: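 Readout is IL-1a level by ELISA, compared bidirectionally with DMSO as baseline. Cells: human keratinocytes co-cultured with foreskin fibroblasts, harvested 24 h post-dose.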

[19] = read-out: ABC Transporter (ABCC2), ABCC2 (gene 1244); test: LTEA_HepaRG_ABCC2: Life Technologies and Expression Analysis (LTEA) Assay for ABC Transporter (ABCC2) using HepaRG (AID 2283464); conditions: actives raise or lower the signal; mRNA level, 48 h
Outline: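 Gene expression of ABCC2 was determined by qRT-PCR in HepaRG cells exposed 48 h to chemicals (highest 100 uM, half-log dilutions). Activity was fitted in both directions relative to 0.5% DMSO vehicle.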

[20] = read-out: Nuclear factor erythroid 2-related factor 2 (Homo sapiens) (UniProt Q16236); test: LTEA_HepaRG_NFE2L2: Life Technologies and Expression Analysis (LTEA) Assay for Nuclear factor erythroid 2-related factor 2 (NFE2L2) Transcription Factor using HepaRG (AID 2283527); conditions: actives raise or lower the signal; mRNA level, 48 h;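 also: TaqMan qRT-PCR transcript level normalised to ACTB GAPDH and POLR2A housekeeping genes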
Outline: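 Human liver HepaRG line treated in duplicate for 48 h with an eight-point series topping at 100 uM. Gene expression of NFE2L2 by qRT-PCR, bidirectionally fitted against the vehicle control.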

[21] = Tanguay_ZF_120hpf_EYE_legacy: (Legacy) Oregon State University Tanguay Lab 120 Hour Post-fertilization zebrafish Assay for Eye Malformation (AID 2283636; active = hit-call score of the fitted dose curve at least 0.9, where 1 is the maximum;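 also: binary presence or absence of eye malformation scored by brightfield in 120 hpf larvae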)
Outline: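 Static waterborne exposure of dechorionated zebrafish embryos (strain Tropical 5D), 6 to 120 hpf, sealed plates at 28C, 0.64% DMSO vehicle. Eye malformation is scored as a binary endpoint, with gain of signal analysed relative to DMSO.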

[22] = read-out: Interleukin-8 (IL8), CXCL8 (gene 3576); test: BSK_hDFCGF_IL8: BioMAP Diversity Plus: hDFCGF Assay for Interleukin-8 (IL8) Biomarker Activity (AID 2283058); conditions: actives raise or lower the signal; primary human foreskin fibroblasts
Outline: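 IL-8 levels from compound-treated primary human fibroblasts were read by ELISA at 24 h, with DMSO serving as baseline for bidirectional fitting.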

[23] = read-out: Interleukin-8 (IL8), CXCL8 (gene 3576); test: BSK_LPS_IL8: BioMAP Diversity Plus: LPS Assay for Interleukin-8 (IL8) Biomarker Activity (AID 2283078); conditions: actives raise or lower the signal; primary human HUVEC with PBMC
Outline: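 Endothelial cells and PBMC from human donors are co-cultured, treated with chemicals and LPS, then assayed for IL-8 by ELISA after 24 h. Parallel SRB staining (0.1% SRB after 10% TCA fixation, 560 nm) flags cytotoxicity.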

[24] = BSK_LPS_PGE2: BioMAP Diversity Plus: LPS Assay for Prostaglandin E2 (PGE2) Biomarker Activity (AID 2283082); conditions: actives raise or lower the signal; primary human HUVEC with PBMC;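 also: secreted prostaglandin E2 measured by ELISA in LPS-stimulated co-culture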
Outline: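 PGE2 release measured by ELISA in an LPS-activated co-culture of human umbilical vein endothelial cells and peripheral blood mononuclear cells, read at 24 h post-dosing. DMSO served as baseline for bidirectional curve fitting.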

[25] = read-out: Glutathione S-Transferase (GSTA2), GSTA2 (gene 2939); test: LTEA_HepaRG_GSTA2: Life Technologies and Expression Analysis (LTEA) Assay for Glutathione S-Transferase (GSTA2) using HepaRG (AID 2283497); conditions: actives raise or lower the signal; mRNA level, 48 h
Outline: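 Oxidative-stress marker GSTA2 is quantified by TaqMan qRT-PCR in HepaRG cultures treated 48 h across an eight-point range to 100 uM. Expression is normalized to endogenous controls and compared with 0.5% DMSO vehicle.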

[26] = CCTE_Shafer_MEA_dev_firing_rate_mean: CCTE's Neural Network Formation Assay for Mean Firing Rate, Shafer Lab (AID 2284031);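 also: AUC of well mean spike rate recorded on DIV 5 7 9 and 12; curve fitted for loss of firing so AC50 reflects decreased mean firing rate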
Outline: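 Spike frequency (spikes/recording length, averaged over active electrodes) was recorded on days 5, 7, 9 and 12 and collapsed to AUC; rat cortical cultures received compound continuously over 12 days of network development.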

[27] = CCTE_Shafer_MEA_dev_active_electrodes_number: CCTE's Neural Network Formation Assay for Number of Active Electrodes, Shafer Lab (AID 2284040; active = hit-call score of the fitted dose curve at least 0.9, where 1 is the maximum;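 also: potency for loss of active electrodes versus DMSO so lower counts are hits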)
Outline: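 Counts electrodes per well firing at least 5 spikes/min, recorded on days 5, 7, 9 and 12 in rat cortical cultures dosed continuously from plating (treatment refreshed DIV 5, 9). Value is the area under the curve over recordings, fitted downward relative to DMSO.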

[28] = CCTE_Mundy_HCI_Cortical_Synap_Neur_Matur_CellBodySpotCount: CCTE's Synaptogenesis and Neurite Maturation Assay in rat cortical cells for Cell Body Spot Count, Mundy Lab (AID 2284223)
Outline: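 Synapse number at neuronal cell bodies was quantified as synaptophysin puncta per neuron in rat cortical cultures exposed from DIV 7 to DIV 12. Values were normalised to DMSO.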

## N#Cc1c(Cl)c(Cl)c(Cl)c(C#N)c1Cl
[1]
  outcome: inactive
[2]
  outcome: inactive
[3]
  outcome: inactive
[4]
  AC50: active: 1.27 µM
[5]
  outcome: inactive
[6]
  outcome: inactive
[7]
  outcome: inactive
[8]
  AC50: active: 5.12 µM

## O=C(CCl)NCO
[9]
  outcome: inactive

## CCC(=O)Nc1ccc(Cl)c(Cl)c1
[10]
  outcome: inactive
[11]
  outcome: inactive
[12]
  outcome: inactive

## CCCCCCOC(=O)c1ccccc1C(=O)OCCCCCC
[13]
  AC50: active: 4.28 µM
[14]
  outcome: inactive
[15]
  outcome: inactive
[16]
  outcome: inactive

## ClC1=C(Cl)[C@]2(Cl)[C@H]3[C@H]([C@@H]4C=C[C@H]3C4)[C@@]1(Cl)C2(Cl)Cl
[17]
  AC50: active: 12.6 µM
[18]
  AC50: active: 26.1 µM
[19]
  outcome: inactive
[20]
  outcome: inactive
[21]
  outcome: inactive

## COP(=O)(OC)C(O)C(Cl)(Cl)Cl (stereo not drawn)
[22]
  outcome: inactive
[23]
  outcome: inactive
[24]
  AC50: active: 18.4 µM
[25]
  outcome: inactive
[26]
  AC50: active: 21.9 µM
[27]
  AC50: active: 50 µM
[28]
  outcome: inactive
